For at least one compound, name, drawing or mass did not settle the structure.
Tested on: HCV GT1b (Con1, HCV-1b) replicon
Assay: HCV GT1b replicon 2-drug combination assay (firefly luciferase, MacSynergy II)
Type: cell-based, Hepatitis C virus
Details: 2nd inhibitor (NS5A inhibitor) in combination with Compound A
Description: Materials: Cells—The HCV GT1b (Con1, HCV-1b) replicon cells were generated and provided by WuXi AppTec. The HCV-1b replicon cells are Huh7 cells stably transfected with the HCV GT1b replicon containing the HCV subgenome, resistance selection gene NEO and reporter gene firefly luciferase.
Software—HCV replicon data was analyzed using MacSynergy™ II software.
Methods: This study was to assess combination effects of the Compound A with other HCV antivirals on HCV replicon replication in the HCV GT1b replicon assay.
The 2-drug combination experiment was designed using a checkboard cross pattern of 7 drug concentrations of each agent, including each agent alone, in triplicate, plated with the Automated Liquid Workstation (Labcyte, Echo555). The concentrations of the test compounds were 0.125, 0.25, 0.5, 1, 2, 4, 8× EC50 values. The EC50 values of the test compounds were determined in a separate HCV GT1b replicon assay. The regimens of the compound combinations are listed in Table 1—where each regimen includes Compound A as the first compound. The final concentration of DMSO in the cell culture medium was 0.5%. […]
The antiviral activity of the compounds was determined by monitoring activity of the replicon reporter firefly luciferase using Bright Glo in accordance with the protocol provided by the supplier. The combination indices were calculated using the MacSynergy™ II software. […]

In the case of `COC(=O)N[C@H](C(=O)N1CCC[C@H]1c1nc(-c2ccc(-c3ccc(-c4c[nH]c([C@@H]5CCCN5C(=O)[C@@H](NC(=O)OC)C(C)C)n4)cc3)cc2)c[nH]1)C(C)C` [Daclatasvir], the Combination regimen effect is reported as “Minor synergy”.

Source: patent US11752166B2, “Combination therapy for treatment of HCV” (COCRYSTAL PHARMA, INC., priority 2018, dated 2023)
